Assay results from publication PMC9418810.
These are yes or no findings as the source states them, for the method shown. Binding calls can cover weak binding; strength is not graded here. Tags and fused reporters may be left off the sequences shown. For some assays here: Binding seen in cells or lysates may run through a third protein. Values belong to the binder of their own block, whether it stands above or below them.

Tests used:
[1] = target: AcB2 (full length, 1–615 aa) in the BD plasmid pGBKT7 (Allium cepa (onion)); assay: two-hybrid; AcB2 and its truncated fragments in pGBKT7 (BD, bait), AcMYB1 or AtTT2 in pGADT7 (AD); yeast strain AH109; spotted on medium lacking Trp, Leu, His and Ade, 3 days at 30°C
[2] = target: AcB2 fused with the N-terminus of luciferase (nLUC) (Allium cepa (onion)); assay: split reporter; luciferase complementation imaging; AcB2 in 35S::nLuc, AcMYB1 or AtTT2 in 35S::cLuc, co-infiltrated into N. benthamiana leaves; CCD camera

binding [1]: binds
B1: AtTT2 (full length) in the AD plasmid pGADT7 (protein, UniProt Q9FJA2 1-258)
chain: MGKRATTSVRREELNRGAWTDHEDKILRDYITTHGEGKWSTLPNQAGLKRCGKSCRLRWKNYLRPGIKRGNISSDEEELIIRLHNLLGNRWSLIAGRLPGRTDNEIKNHWNSNLRKRLPKTQTKQPKRIKHSTNNENNVCVIRTKAIRCSKTLLFSDLSLQKKSSTSPLPLKEQEMDQGGSSLMGDLEFDFDRIHSEFHFPDLMDFDGLDCGNVTSLVSSNEILGELVPAQGNLDLNRPFTSCHHRGDDEDWLRDFTC

binding [2]: binds
B2: AtTT2 in the plasmid 35S::cLuc (fused with the C-terminus of luciferase) (protein, UniProt Q9FJA2 1-258)
chain: B1 chain
